Experimental data as given in patent US7214519B2, “Screening method for identifying heme independent modulators of soluble guanylyl cyclase (sGC) activity using αβCys105 mutant sGC” (Board of Regents of the University of Texas System, priority 2003, dated 2007).

Key:
[1] = UV-Vis spectroscopy of sGC enzymes (heme content, Soret peak); assay type: physicochemical; conditions: after heme reconstitution
[2] = cited from earlier work

With “αβ^Cys105: heme-deficient, constitutively active human soluble guanylyl cyclase mutant; β subunit carries His105→Cys substitution” the “λmax of Soret peak” value ([1]; +NO) was 400 nm and the “λmax of Soret peak” value ([1]; Basal) was 417 nm.

For “Wild Type: recombinant wild type human soluble guanylyl cyclase expressed in Sf9 cells”, the “λmax of Soret peak” value ([2]; +NO, wild type) is listed as 399 nm and the “λmax of Soret peak” value ([2]; Basal, wild type) is listed as 431 nm.

B1: αβ^Phe105: bovine sGC with βHis105→Phe substitution, from the literature (40) (protein, UniProt P19687 1-691; P16068 1-619, looked up, variant H105F)
Guanylate cyclase soluble … 1: MFCAKLKDLQITGDCPFSLLAPGQVPREPLGEATGSGPASTPGQPGVCPGVPDKNPPGRLPRRKTSRSRVYLHTLAESICKLIFPEFERLNLALQRTLAKHKIKENRKSLEREDFEKIVVDQAIAAGVPVEIIKESLGEELFKICYEEDEYILGVVGGTLKDFLNSFSTLLKQSSHCQEAEKKGRFEDASILCLDKDPDVLYVYYFFPKRITSLILPGIIKAAARILYETEVEVSSTPSRFHQDCREFVDQPCELYSVHIRSARPHPPPGKPVSSLVIPASLFCKTFPFHFMLDRDMSILQLGHGIRRLMSRRDVQGKPHFDEYFEILTPKISQTFSGIMTMLNMQFLVRVRRWDNSMKKSSRVMDLKGQMIYMVESSSILFLGSPCVDRLEDFTGRGLYLSDIPIHNALRDVVLIGEQARAQDGLKKRLGKLKATLEQAHQALEEEKRKTVDLLCSIFPSEVARQLWQGHAVQAKRFGNVTMLFSDIVGFTAICSQCSPLQVITMLNALYTRFDRQCGELDVYKVETIGDAYCVAGGLHKESDTHAVQIALMALKMMELSHEVVSPHGEPIKMRIGLHSGSVFAGVVGVKMPRYCLFGNNVTLANKFESCSVPRKINVSPTTYRLLKDCPGFVFTPRSREELPPNFPSDIPGICHFLEAYQQGTTSKPWFQKKDVEEANANFLGKASGID
Guanylate cyclase soluble … 2: MYGFVNHALELLVIRNYGPEVWEDIKKEAQLDEEGQFLVRIIYDDSKTYDLVAAASKVLNLNAGEILQMFGKMFFVFCQESGYDTILRVLGSNVREFLQNLDALFDHLATIYPGMRAPSFRCTDADKGKGLILHYYSEREGLQDIVIGIIKTVAQQIHGTEIDMKVIQQRNEECDHTQFLIEEKESKEEDFYEDLDRFEENGTQESRISPYTFCKAFPFHIIFDRDLVVTQCGNAIYRVLPQLQPGNCSLLSVFSLVRPHIDISFHGILSHINTVFVLRSKEGLLDVEKSECEDELTGTEISCLRLKGQMIYLPEADSILFLCSPSVMNLDDLTRRGLYLSDIPLHDATRDLVLLGEQFREEYKLTQELEILTDRLQLTLRALEDEKKKTDTLLYSVLPPSVANELRHKRPVPAKRYDNVTILFSGIVGFNAFCSKHASGEGAMKIVNLLNDLYTRFDTLTDSRKNPFVYKVETVGDKYMTVSGLPEPCIHHARSICHLALDMMEIAGQVQVDGESVQITIGIHTGEVVTGVIGQRMPRYCLFGNTVNLTSRTETTGEKGKINVSEYTYRCLMTPENSDPQFHLEHRGPVSMKGKKEPMQVWFLSRKNTGTEETEQDEN
modifications: mutation in beta subunit
In the case of B1, the “λmax of Soret peak” value ([2]; Basal, after heme reconstitution) is listed as 400 nm and 400^#,(40) nm and the Heme ([2]; αβ^Phe105, literature) is listed as “No”.

Where “and” joins values, the source holds several entries; their conditions need not be identical. Identical values can stand only once. Like-named read-outs stand apart in the source and are kept apart here.
